# ± gives the standard deviation of the averaged measurements. This is a selection; strong and weak results do not stand in their true shares. Most entries show no effect beyond the scatter of the controls.
# Protein sequences, listed by entry. Tags and fused reporters are not part of them. Lines headed by an entry give the natural chain unless they say otherwise; changes in a name come on top.
# UniProt O43396: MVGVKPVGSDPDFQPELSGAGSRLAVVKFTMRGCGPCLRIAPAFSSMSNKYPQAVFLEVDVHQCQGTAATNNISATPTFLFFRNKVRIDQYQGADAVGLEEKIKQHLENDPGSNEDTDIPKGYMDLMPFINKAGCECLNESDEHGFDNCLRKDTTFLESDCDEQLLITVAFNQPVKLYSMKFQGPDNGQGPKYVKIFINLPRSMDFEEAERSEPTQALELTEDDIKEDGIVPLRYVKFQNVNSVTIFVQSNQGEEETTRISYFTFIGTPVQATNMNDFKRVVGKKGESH
# UniProt O00116: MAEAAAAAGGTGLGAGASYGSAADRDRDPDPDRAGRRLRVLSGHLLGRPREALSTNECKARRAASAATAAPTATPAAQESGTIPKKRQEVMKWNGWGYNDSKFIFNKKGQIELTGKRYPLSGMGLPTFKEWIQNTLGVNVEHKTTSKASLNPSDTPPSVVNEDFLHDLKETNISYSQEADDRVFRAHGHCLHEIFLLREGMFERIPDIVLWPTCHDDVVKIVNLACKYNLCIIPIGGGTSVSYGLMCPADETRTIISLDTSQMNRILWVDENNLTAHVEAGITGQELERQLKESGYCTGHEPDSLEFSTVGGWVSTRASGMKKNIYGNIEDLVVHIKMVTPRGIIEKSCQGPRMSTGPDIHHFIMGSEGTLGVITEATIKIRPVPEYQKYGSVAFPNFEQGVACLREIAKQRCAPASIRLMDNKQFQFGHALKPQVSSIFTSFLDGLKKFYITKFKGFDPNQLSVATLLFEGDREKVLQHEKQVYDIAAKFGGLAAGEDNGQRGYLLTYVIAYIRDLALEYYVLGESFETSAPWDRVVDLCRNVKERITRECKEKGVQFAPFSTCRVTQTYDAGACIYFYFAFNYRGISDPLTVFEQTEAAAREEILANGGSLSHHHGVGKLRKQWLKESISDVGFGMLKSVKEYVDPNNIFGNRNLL
# UniProt O00170: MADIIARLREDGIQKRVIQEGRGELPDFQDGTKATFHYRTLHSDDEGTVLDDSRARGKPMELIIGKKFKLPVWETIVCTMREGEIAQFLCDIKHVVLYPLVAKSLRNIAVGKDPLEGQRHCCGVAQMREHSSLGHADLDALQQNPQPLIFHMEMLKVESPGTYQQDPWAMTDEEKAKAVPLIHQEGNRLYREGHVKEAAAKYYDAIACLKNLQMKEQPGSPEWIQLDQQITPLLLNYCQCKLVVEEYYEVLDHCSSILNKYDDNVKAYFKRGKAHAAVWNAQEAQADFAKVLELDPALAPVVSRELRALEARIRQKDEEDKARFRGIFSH
# UniProt O43818: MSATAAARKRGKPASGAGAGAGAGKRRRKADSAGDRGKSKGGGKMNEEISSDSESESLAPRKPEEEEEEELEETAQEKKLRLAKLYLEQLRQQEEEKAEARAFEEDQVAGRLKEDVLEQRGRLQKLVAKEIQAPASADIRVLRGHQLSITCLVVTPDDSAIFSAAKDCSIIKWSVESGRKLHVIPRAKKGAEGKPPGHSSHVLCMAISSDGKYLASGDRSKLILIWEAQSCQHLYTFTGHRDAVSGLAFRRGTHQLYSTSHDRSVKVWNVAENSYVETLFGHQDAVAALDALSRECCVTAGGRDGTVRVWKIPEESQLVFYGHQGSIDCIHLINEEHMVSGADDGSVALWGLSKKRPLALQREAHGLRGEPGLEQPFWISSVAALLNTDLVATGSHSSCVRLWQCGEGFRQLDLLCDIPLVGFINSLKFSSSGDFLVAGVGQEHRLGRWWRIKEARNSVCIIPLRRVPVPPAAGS
# UniProt O43390: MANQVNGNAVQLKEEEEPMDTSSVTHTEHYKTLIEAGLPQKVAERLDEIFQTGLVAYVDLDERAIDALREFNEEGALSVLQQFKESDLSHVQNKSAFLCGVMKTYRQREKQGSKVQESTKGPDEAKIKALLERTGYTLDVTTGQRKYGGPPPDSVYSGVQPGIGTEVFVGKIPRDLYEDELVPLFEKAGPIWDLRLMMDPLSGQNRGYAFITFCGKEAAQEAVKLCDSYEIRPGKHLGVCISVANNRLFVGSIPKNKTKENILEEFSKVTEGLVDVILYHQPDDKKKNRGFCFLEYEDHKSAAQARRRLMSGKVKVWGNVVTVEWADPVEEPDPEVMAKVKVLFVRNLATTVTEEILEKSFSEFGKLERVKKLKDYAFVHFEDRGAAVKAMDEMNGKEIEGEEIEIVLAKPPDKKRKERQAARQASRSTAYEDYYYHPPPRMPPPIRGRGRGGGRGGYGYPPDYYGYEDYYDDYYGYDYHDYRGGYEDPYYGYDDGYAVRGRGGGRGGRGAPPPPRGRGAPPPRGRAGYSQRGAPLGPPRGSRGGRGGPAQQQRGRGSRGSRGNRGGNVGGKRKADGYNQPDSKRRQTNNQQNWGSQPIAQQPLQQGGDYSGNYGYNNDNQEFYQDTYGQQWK
# UniProt O43822: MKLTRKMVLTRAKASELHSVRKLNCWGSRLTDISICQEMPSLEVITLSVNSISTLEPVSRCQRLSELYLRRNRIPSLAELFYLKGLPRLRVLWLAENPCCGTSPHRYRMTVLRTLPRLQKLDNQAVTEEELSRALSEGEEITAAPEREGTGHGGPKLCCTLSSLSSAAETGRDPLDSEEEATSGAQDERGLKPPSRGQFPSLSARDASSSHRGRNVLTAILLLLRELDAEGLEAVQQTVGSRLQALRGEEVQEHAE
# UniProt O43399: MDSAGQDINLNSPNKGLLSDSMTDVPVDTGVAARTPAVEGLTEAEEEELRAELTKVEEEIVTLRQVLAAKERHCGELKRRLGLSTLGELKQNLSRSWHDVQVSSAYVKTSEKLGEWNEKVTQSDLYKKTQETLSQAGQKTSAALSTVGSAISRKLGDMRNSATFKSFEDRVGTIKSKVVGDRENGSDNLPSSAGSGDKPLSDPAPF
# UniProt O00463: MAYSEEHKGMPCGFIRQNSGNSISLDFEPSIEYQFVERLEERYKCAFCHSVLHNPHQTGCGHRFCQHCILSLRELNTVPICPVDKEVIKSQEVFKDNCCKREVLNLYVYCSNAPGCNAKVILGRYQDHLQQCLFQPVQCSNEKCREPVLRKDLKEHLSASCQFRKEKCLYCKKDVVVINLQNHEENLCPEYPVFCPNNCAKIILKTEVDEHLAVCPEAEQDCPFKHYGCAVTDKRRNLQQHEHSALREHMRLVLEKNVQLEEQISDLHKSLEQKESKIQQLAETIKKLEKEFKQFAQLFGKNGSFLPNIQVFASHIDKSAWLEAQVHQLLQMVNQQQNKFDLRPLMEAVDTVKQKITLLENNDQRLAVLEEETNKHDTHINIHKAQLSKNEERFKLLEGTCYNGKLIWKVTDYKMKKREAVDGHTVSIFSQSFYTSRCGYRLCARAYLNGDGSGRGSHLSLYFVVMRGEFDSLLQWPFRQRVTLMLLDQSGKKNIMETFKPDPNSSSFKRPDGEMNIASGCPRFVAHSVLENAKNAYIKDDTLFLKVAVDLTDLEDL
# UniProt O43310: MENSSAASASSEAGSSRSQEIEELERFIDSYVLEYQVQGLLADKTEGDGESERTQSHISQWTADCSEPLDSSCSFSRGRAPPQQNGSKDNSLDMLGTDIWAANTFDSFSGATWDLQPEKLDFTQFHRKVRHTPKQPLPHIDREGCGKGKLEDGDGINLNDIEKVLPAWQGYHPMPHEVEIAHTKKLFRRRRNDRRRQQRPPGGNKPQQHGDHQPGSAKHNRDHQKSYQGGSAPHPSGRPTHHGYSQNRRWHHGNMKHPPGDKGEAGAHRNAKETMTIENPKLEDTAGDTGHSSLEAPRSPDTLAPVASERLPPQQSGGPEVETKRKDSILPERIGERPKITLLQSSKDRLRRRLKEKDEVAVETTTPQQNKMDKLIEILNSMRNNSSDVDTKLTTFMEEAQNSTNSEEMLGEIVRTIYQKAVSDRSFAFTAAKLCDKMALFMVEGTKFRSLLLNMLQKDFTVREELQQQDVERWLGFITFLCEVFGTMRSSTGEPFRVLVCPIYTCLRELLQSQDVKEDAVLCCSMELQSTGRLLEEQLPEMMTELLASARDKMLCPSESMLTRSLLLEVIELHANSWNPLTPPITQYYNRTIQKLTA
# UniProt O00487, whole entry: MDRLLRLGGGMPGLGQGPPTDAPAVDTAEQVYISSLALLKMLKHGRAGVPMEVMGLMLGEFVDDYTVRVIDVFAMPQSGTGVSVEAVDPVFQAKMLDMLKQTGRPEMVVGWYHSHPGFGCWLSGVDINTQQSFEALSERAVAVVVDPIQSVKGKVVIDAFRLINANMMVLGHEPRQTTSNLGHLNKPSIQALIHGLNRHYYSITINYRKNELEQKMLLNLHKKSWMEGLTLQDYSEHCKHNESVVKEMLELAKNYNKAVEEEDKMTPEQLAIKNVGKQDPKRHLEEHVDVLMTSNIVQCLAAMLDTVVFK
# UniProt O15040: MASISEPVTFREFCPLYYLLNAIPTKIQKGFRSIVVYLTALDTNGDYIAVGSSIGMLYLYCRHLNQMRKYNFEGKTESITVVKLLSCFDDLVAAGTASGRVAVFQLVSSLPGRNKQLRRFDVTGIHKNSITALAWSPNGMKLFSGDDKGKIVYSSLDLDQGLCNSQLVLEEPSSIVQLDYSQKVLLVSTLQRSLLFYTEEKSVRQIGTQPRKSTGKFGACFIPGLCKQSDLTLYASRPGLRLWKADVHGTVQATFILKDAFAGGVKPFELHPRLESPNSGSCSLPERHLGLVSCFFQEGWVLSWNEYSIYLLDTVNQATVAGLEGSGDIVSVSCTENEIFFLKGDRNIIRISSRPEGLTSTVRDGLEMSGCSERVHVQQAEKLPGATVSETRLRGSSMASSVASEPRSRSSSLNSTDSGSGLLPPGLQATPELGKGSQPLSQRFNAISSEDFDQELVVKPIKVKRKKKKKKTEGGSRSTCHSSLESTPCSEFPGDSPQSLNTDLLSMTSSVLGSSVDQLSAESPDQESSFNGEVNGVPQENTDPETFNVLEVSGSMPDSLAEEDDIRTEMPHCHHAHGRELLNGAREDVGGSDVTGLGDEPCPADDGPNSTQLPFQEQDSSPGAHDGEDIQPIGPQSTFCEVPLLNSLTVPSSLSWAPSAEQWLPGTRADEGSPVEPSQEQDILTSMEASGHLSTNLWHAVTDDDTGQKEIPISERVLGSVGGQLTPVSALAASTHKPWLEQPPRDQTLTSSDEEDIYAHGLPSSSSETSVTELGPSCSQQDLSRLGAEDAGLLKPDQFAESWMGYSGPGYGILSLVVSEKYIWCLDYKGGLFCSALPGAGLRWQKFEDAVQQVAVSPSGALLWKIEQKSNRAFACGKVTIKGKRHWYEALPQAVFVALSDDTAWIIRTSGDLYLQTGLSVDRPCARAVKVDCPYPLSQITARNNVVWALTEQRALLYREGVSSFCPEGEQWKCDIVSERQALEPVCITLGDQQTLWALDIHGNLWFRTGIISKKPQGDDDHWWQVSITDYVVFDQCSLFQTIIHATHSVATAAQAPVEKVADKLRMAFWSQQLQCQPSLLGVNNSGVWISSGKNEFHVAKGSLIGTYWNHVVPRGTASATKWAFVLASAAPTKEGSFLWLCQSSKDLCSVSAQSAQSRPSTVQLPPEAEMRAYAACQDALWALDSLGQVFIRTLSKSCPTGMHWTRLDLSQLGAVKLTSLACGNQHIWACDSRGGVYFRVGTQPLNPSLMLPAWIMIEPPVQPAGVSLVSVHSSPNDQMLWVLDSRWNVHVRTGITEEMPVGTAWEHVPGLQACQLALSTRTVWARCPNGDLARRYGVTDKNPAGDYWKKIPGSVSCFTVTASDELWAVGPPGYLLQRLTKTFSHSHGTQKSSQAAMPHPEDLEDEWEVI
# UniProt O14732: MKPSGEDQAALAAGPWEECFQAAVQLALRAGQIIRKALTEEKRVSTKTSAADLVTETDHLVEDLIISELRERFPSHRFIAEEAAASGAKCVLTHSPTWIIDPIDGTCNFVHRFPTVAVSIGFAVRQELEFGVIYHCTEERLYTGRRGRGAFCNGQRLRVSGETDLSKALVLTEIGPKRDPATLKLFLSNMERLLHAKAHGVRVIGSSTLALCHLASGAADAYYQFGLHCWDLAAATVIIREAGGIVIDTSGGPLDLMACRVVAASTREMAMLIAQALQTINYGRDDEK
# UniProt O15091: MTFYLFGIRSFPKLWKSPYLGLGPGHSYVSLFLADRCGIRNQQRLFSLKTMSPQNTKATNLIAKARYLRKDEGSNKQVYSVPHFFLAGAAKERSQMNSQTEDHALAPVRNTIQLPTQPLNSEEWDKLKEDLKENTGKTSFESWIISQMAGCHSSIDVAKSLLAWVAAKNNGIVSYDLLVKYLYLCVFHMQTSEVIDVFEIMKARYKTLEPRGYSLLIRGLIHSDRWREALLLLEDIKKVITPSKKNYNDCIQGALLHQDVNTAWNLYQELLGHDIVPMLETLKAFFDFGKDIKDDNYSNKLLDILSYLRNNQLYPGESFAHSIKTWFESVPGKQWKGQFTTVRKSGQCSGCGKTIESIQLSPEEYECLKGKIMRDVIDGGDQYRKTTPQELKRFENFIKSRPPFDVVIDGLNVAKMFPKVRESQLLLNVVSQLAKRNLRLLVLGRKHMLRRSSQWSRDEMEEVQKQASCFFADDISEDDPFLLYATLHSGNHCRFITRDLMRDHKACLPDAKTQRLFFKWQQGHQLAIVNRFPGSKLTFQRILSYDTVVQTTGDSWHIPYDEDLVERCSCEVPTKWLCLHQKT
# Compound: Nc1ncnc2c1ncn2[C@@H]1O[C@H](COP(=O)(O)OP(=O)(O)OP(=O)(O)O)[C@@H](O)[C@H]1O [adenosine triphosphate]
# Assay: NP40-soluble protein abundance relative to vehicle (solubility fold change) (ratio); higher = more soluble protein in presence of ATP
# Conditions: concentration: 0.1mM
# Method in brief: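 Eight concentrations, 0.1 to 10 mM, were tested on Jurkat crude lysate for 10 min at room temperature and then 3 min at 37 °C, in three independent experiments. The lysate was solubilised with 0.8% NP40 and benzonase, ultracentrifuged, and the supernatant TMT-labelled for LC-MS/MS. Each value is the fold change against the detergent-processed vehicle in its own replicate, from vsn-normalised intensities.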
row,Target,NP40-soluble protein abundance
1,UniProt O00255 and related entries,1.05 ± 0.015
2,M0R2Z9 and related entries (UniProt Q8IX01),0.965 ± 0.07
3,UniProt O60313-2|E5KLJ5,1.02 ± 0.036
4,TXNL1 (UniProt O43396),1.02 ± 0.034
5,M0R2P6 and related entries (UniProt Q8TBC3),1.13 ± 0.24
6,EEF2K (UniProt O00418),1.02 ± 0.033
7,AGPS (UniProt O00116),1.05 ± 0.062
8,UniProt O15066 and related entries,0.991 ± 0.027
9,UniProt O43295 and related entries,0.968 ± 0.096
10,AIP (UniProt O00170),0.963 ± 0.023
11,M0R0F2 and related entries (UniProt Q8N594),1.08 ± 0.068
12,UniProt O00182 and related entries,1.03 ± 0.046
13,ARPC2 (UniProt O15144),1.05 ± 0.097
14,UniProt O43166-2|O43166-3|O43166,1.03 ± 0.059
15,RRP9 (UniProt O43818),1 ± 0.011
16,UniProt O43390 and related entries,1.03 ± 0.046
17,O60344 and related entries (UniProt P0DPD6),0.94 ± 0.064
18,XPOT (UniProt O43592),1.01 ± 0.05
19,UniProt O43822 and related entries,1.04 ± 0.082

row,Target,NP40-soluble protein abundance
1,UniProt O15439 and related entries,1.03 ± 0.052
2,UniProt O43399 and related entries,0.849 ± 0.16
3,PAPSS1 (UniProt O43252),1.04 ± 0.051
4,TIMM23 (UniProt O14925),1.01 ± 0.052
5,TRAF5 (UniProt O00463),1.05 ± 0.074
6,UniProt O43310 and related entries,1.02 ± 0.13
7,UniProt O00487,1.01 ± 0.064
8,UniProt O15040 and related entries,0.999 ± 0.064
9,UniProt O00165 and related entries,1.04 ± 0.022
10,UniProt O14732 and related entries,1.0367 ± 0.00036
11,UniProt O43150 and related entries,1.07 ± 0.032
12,UniProt O43422,1.04 ± 0.11
13,UniProt O00716-2,0.932 ± 0.047
14,UniProt O43164 and related entries,0.997 ± 0.023
15,HGS (UniProt O14964),0.994 ± 0.049
16,KIF1C (UniProt O43896),1.01 ± 0.043
17,UniProt O60331 and related entries,1.06 ± 0.085
18,UniProt O15091,0.997 ± 0.025
19,PSMD3 (UniProt O43242),0.958 ± 0.031

# Same assay, conditions: concentration: 0.5mM
row,Target,NP40-soluble protein abundance
1,UniProt O00255 and related entries,1.04 ± 0.021
2,M0R2Z9 and related entries (UniProt Q8IX01),1.05 ± 0.073
3,UniProt O60313-2|E5KLJ5,1.02 ± 0.042
4,TXNL1 (UniProt O43396),1.03 ± 0.043
5,M0R2P6 and related entries (UniProt Q8TBC3),1.02 ± 0.014
6,EEF2K (UniProt O00418),1.03 ± 0.051
7,AGPS (UniProt O00116),1.03 ± 0.044
8,UniProt O15066 and related entries,0.997 ± 0.053
9,UniProt O43295 and related entries,1.03 ± 0.077
10,AIP (UniProt O00170),0.954 ± 0.033
11,M0R0F2 and related entries (UniProt Q8N594),1.06 ± 0.095
12,UniProt O00182 and related entries,1.02 ± 0.051
13,ARPC2 (UniProt O15144),1.06 ± 0.099
14,UniProt O43166-2|O43166-3|O43166,1.0394 ± 0.00088
15,RRP9 (UniProt O43818),1.05 ± 0.048
16,UniProt O43390 and related entries,1.06 ± 0.049
17,O60344 and related entries (UniProt P0DPD6),0.995 ± 0.048
18,XPOT (UniProt O43592),1 ± 0.013
19,UniProt O43822 and related entries,1.1 ± 0.023

row,Target,NP40-soluble protein abundance
1,UniProt O15439 and related entries,0.873 ± 0.056
2,UniProt O43399 and related entries,0.841 ± 0.19
3,PAPSS1 (UniProt O43252),1.03 ± 0.043
4,TIMM23 (UniProt O14925),0.944 ± 0.042
5,TRAF5 (UniProt O00463),1.06 ± 0.082
6,UniProt O43310 and related entries,1.01 ± 0.046
7,UniProt O00487,0.976 ± 0.039
8,UniProt O15040 and related entries,0.938 ± 0.059
9,UniProt O00165 and related entries,1.07 ± 0.066
10,UniProt O14732 and related entries,1.04 ± 0.042
11,UniProt O43150 and related entries,1.07 ± 0.083
12,UniProt O43422,1 ± 0.12
13,UniProt O00716-2,1.048 ± 0.0075
14,UniProt O43164 and related entries,1 ± 0.083
15,HGS (UniProt O14964),0.982 ± 0.031
16,KIF1C (UniProt O43896),1.05 ± 0.051
17,UniProt O60331 and related entries,1.01 ± 0.023
18,UniProt O15091,1.01 ± 0.046
19,PSMD3 (UniProt O43242),0.927 ± 0.021

# Reference: the supplement of paper PMC6411743
